Laboratory results: PubChem BioAssay AID743454 (Peter MacCallum Cancer Centre, 2014)
The deposit covers about 18,000 reagents; this is a part drawn at random. 450 of them (2.5%) count as active. 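Single biological run; no consistent viability z cut-off exists, so the class columns, not z-scores, define the calls.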 Reagents against one gene are numbered here.

Assay: 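Genes whose loss kills vorinostat-resistant colon cancer cells under vorinostat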 (primary screen)
Cells: human HCT116-VR colon cancer cells, selected for vorinostat resistance
Knock-down reagent: siRNA pool against human genes, 40 nM siRNA pool
Time to read-out: vorinostat for 24 h, read-out about 72 h after transfection
Treatment: vorinostat at 2.5 µM final
Measurement: 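Two measures, CellTiter-Fluor viability and luminescent caspase 3/7 activity, each as fold change against same-plate mock wells, mean of duplicates, then screen-wide robust z-score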
Reading the numbers: viability robust z-score: higher = more viable cells than screen typical; caspase robust z-score: higher = more caspase 3/7 activity than screen typical
Active means: 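a knock-down is a hit when classed RV1 or RV2 for lowered viability, or CA1 or CA2 for caspase activation; those lethal without drug were dropped; hits were retested singly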

The opening 3 entries, ahead of the listing:
Gene | reagent no. | viability hit class | caspase hit class | viability robust z-score | caspase robust z-score | Outcome
TECTA | 1 | no change | no change | 0.84 | -1.08 | inactive
DEFB110 | 1 | no change | no change | 0.89 | -0.38 | inactive
DEFB110 | 2 | no change | no change | 0.72 | 0.2 | inactive

Main list, repeating the preview:
Gene | reagent no. | viability hit class | caspase hit class | viability robust z-score | caspase robust z-score | Outcome
TECTA | 1 | no change | no change | 0.84 | -1.08 | inactive
DEFB110 | 1 | no change | no change | 0.89 | -0.38 | inactive
DEFB110 | 2 | no change | no change | 0.72 | 0.2 | inactive
AICDA | 1 | no change | no change | 0.96 | 1.4 | inactive
SLC61A1 | 1 | no change | no change | 0.12 | 3.38 | inactive
PURA | 1 | no change | no change | 0.12 | -0.58 | inactive
TRMT2B | 1 | no change | no change | 1.51 | 0.43 | inactive
PDGFA | 1 | no change | no change | 0.15 | -0.45 | inactive
FXYD2 | 1 | no change | no change | -0.6 | 1.25 | inactive
DNAH6 | 1 | no change | no change | -0.03 | -0.76 | inactive
CASP10 | 1 | no change | no change | 0.44 | -0.31 | inactive
MC5R | 1 | no change | no change | 0.41 | -0.63 | inactive
SFXN2 | 1 | no change | no change | -1.51 | 4.61 | inactive
FOXB2 | 1 | no change | no change | 0.65 | 0.03 | inactive
FLYWCH1 | 1 | no change | no change | 0.89 | -0.42 | inactive
PTPRR | 1 | no change | no change | 0.74 | -0.04 | inactive
ITPRIPL2 | 1 | no change | no change | 0.08 | -0.24 | inactive
ALDH3B2 | 1 | no change | no change | 0.71 | -0.61 | inactive
ACVR2A | 1 | no change | no change | 0.04 | -0.38 | inactive
SATL1 | 1 | no change | no change | 0.97 | 0.08 | inactive
CCNJ | 1 | no change | no change | -0.11 | -0.92 | inactive
CCDC17 | 1 | no change | no change | 0.34 | 0.44 | inactive
SEMA3D | 1 | no change | no change | 0 | -0.53 | inactive
FAT4 | 1 | no change | no change | 0.94 | -0.63 | inactive
NOP53 | 1 | no change | no change | -2.8 | -0.06 | inactive
RFC5 | 1 | no change | no change | 0.28 | 0.06 | inactive
NOL4 | 1 | no change | no change | 0.56 | 0.92 | inactive
ZNF675 | 1 | no change | no change | 0.2 | -1.09 | inactive
KIF5A | 1 | no change | no change | 1.4 | 0.16 | inactive
STEAP4 | 1 | no change | no change | 0.06 | 2.4 | inactive
IQSEC3 | 1 | no change | no change | -1.44 | -0.5 | inactive
XPO5 | 1 | no change | no change | -0.2 | -0.09 | inactive
FAHD2A | 1 | no change | no change | -0.32 | 2.12 | inactive
COL4A1 | 1 | no change | no change | 0.89 | -0.05 | inactive
TMEM60 | 1 | no change | no change | 0.44 | 0.98 | inactive
ASNS | 1 | no change | no change | 1.1 | -0.6 | inactive
HMGA2 | 1 | no change | no change | -1.04 | 0.4 | inactive
MMP26 | 1 | no change | no change | -0.05 | 0.1 | inactive
TSPAN16 | 1 | no change | no change | -0.24 | -0.24 | inactive
RIOK1 | 1 | no change | no change | -1.63 | 1.12 | inactive
CALHM2 | 1 | no change | no change | 0.28 | -0.68 | inactive
ANXA11 | 1 | no change | no change | 0.69 | 0.1 | inactive
SARAF | 1 | no change | no change | 2.23 | -0.58 | inactive
H2BC21 | 1 | no change | no change | -0.36 | -0.74 | inactive
ZNF775 | 1 | no change | no change | -1.06 | 0.5 | inactive
FBXO24 | 1 | no change | no change | 0.11 | -0.68 | inactive
OAZ2 | 1 | no change | no change | 0.68 | -0.26 | inactive
RNF103 | 1 | no change | no change | -1.54 | 2.02 | inactive
ERGIC2 | 1 | no change | no change | 0.85 | 0.81 | inactive
REG3A | 1 | no change | no change | -1.26 | 1.77 | inactive
THRB | 1 | no change | no change | -0.14 | -0.57 | inactive
NUP210L | 1 | no change | no change | 0.9 | 0.36 | inactive
NUS1 | 1 | no change | no change | 0.9 | 0.46 | inactive
PPID | 1 | no change | no change | -0.02 | -0.35 | inactive
ABHD14A | 1 | no change | no change | -0.11 | 0.68 | inactive
CPN1 | 1 | no change | no change | -0.08 | 0.32 | inactive
HBP1 | 1 | no change | no change | -1.8 | -0.78 | inactive
